In the test the target is endogenous Runx2 (mouse (endogenous in primary osteoblasts)) (UniProt Q08775). As to the kind of experiment: co-IP; primary osteoblast precursor cells cultured four days in OGM; lysates immunoprecipitated with anti-Runx2, western blot with anti-Lmx1b or anti-Runx2; endogenous proteins. On the technique in general: Immunoblotting shows a protein as a band on a membrane.

Chains of the proteins cited; added tags and fusions are not shown.
UniProt Q08775: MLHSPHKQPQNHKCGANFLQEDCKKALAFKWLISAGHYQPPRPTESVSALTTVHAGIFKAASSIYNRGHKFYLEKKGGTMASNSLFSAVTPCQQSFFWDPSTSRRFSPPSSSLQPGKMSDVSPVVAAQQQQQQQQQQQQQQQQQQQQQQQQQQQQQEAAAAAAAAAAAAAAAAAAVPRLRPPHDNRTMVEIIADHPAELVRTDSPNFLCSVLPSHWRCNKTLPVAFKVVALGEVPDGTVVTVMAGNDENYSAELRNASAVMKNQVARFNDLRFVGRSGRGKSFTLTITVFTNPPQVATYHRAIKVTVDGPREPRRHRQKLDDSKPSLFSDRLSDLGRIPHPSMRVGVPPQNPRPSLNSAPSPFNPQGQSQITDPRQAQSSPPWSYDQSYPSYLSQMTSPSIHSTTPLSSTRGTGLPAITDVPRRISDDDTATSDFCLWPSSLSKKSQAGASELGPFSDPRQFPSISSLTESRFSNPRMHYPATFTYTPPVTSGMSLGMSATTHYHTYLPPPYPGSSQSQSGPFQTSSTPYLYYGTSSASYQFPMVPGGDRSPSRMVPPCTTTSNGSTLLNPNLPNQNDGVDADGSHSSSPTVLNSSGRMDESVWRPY

For 1 molecule, binding results are on record in article PMC9103437.

These are yes or no findings as the source states them, for the method shown. In cells and extracts the contact can be indirect. Some binding calls cover weakened binding; strength is not graded here.

B1: endogenous Lmx1b (protein, UniProt O88609 1-395)
chain: MDIATGPESLERCFPRGQTDCAKMLDGIKMEEHALRPGPATLGVLLGSDCPHPAVCEGCQRPISDRFLMRVNESSWHEECLQCAACQQALTTSCYFRDRKLYCKQDYQQLFAAKCSGCMEKIAPTEFVMRALECVYHLGCFCCCVCERQLRKGDEFVLKEGQLLCKGDYEKEKDLLSSVSPDESDSVKSEDEDGDMKPAKGQGSQSKGSGDDGKDPRRPKRPRTILTTQQRRAFKASFEVSSKPCRKVRETLAAETGLSVRVVQVWFQNQRAKMKKLARRHQQQQEQQNSQRLGQEVLSSRMEGMMASYTPLAPPQQQIVAMEQSPYGSSDPFQQGLTPPQMPGNDSIFHDIDSDTSLTSLSDCFLGSSDVGSLQARVGNPIDRLYSMQSSYFAS
As to B1, the binding result was “binds”.
